# Data published in patent US6686370B2, “Triazospiro compounds having nociceptin receptor affinity” (Euro-Celtique S.A., priority 1999, dated 2004).
# Chains of the proteins cited; added tags and fusions are not shown. Lines headed by an entry give the natural chain unless they say otherwise; changes in a name come on top.
# UniProt P41146: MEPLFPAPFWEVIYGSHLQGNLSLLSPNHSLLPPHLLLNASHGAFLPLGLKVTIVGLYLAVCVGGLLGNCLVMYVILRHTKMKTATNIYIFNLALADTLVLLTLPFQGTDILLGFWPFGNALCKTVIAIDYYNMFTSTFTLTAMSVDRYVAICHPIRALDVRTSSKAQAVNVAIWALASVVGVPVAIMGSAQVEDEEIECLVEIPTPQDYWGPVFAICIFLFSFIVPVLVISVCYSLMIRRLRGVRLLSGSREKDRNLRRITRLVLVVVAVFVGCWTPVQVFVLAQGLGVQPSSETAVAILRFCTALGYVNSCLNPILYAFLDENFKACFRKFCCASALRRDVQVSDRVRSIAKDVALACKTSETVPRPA
# Target: human opioid receptor-like receptor (ORL-1) (Homo sapiens, UniProt P41146)
# Assay: biochemical
structure (smiles),measurement,value
"O=C1NCN(c2ccccc2)C12CCN(CCCC(c1ccc(F)cc1)c1ccc(F)cc1)CC2 [8-[4,4-Bis(p-fluorophenyl)butyl]-1-phenyl-1,3,8-triazospiro[4.5]decan-4-one]",Ki,168 nM
